Experimental data reported in publication PMC3536794.

By UniProt entry, the sequences of proteins in these tests, tags left out. Where a name states a change or a piece, a line headed by the entry shows the natural chain unless it says otherwise.
UniProt Q9Y2W7: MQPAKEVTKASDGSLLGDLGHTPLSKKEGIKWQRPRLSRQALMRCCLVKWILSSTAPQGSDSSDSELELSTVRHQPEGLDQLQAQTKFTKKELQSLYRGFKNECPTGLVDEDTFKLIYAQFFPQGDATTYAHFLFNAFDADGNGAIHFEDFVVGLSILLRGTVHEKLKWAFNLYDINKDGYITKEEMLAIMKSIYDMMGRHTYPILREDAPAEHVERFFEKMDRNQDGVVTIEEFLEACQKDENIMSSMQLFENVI

molecular target: DREAM (Downstream Regulatory Element Antagonist Modulator) (UniProt Q9Y2W7); experiment: EMSA, supershift, competition; conditions: two bands, outcompeted by unlabeled probe 1:100 and 1:1000, weaker with DREAM siRNA extract; 5 µg BeWo nuclear fraction, 50 ng probe, 0.1 µg poly d(I-C), 10 µL; 750 mM KCl, 2.5 mM EDTA; protein in a lysate after overexpression; protein details: His; label: 3' biotin

Row | Sequence | binding result
1 | TGACAGGTACTGATCCCTCGTCATGTTGTCCAGGATATTGTCA (double strand) [GCM1 43 bp Control probe] | binds

molecular target: DREAM (Downstream Regulatory Element Antagonist Modulator) (UniProt Q9Y2W7); experiment: EMSA; conditions: 5 µg BeWo nuclear fraction, 50 ng probe, 0.1 µg poly d(I-C), 10 µL; 750 mM KCl, 2.5 mM EDTA; protein in a lysate after overexpression; protein details: His; label: 3' biotin

Row | Sequence | binding result
2 | TGACAGGTGCTGATCCCTCGTCATGTTGTCCAGGATATTGTCA (double strand) [GCM1 43 bp Mutation 3] | binds
3 | TGACAGGTACTGATCCCTCGTCGTGTTGTCCAGGATATTGTCA (double strand) [GCM1 43 bp Mutation 1] | binds
4 | CGATAGGTGCTTATCCCTCTTCGTGTTGTCCAGGATATTTTCG / CGAAAATATCCTGGACAACACGAAGAGGGATAAGAACCTATCG [GCM1 43 bp Mutation 5] | binds more weakly
5 | CGACAGGTGCTGATCCCTCGTCGTGTTGTCCAGGATATTGTCG (double strand) [GCM1 43 bp Mutation 4] | binds more weakly
6 | TGACAGGTACTGATCCCTCGTCGTGTTGTCCAGGATATTGTCG (double strand) [GCM1 43 bp Mutation 2] | binds

Construct, isoform or probe ends are uncertain for at least one entry. At least one result comes from cells or an extract, where the contact may be indirect. For part of these data: The comparison behind a weaker result is the experiment's own reference, which may not be listed here.
